In the supplement of paper PMC12067093, “Discovery and optimisation of a covalent ligand for TRIM25 and its application to targeted protein ubiquitination” (Chemical Science, 2025):
This is one part of the list.

Amino acid sequences for entries named in this document (tags omitted). A change or cut given only in a name is not applied to a line headed by its entry.
UniProt Q9UBS8: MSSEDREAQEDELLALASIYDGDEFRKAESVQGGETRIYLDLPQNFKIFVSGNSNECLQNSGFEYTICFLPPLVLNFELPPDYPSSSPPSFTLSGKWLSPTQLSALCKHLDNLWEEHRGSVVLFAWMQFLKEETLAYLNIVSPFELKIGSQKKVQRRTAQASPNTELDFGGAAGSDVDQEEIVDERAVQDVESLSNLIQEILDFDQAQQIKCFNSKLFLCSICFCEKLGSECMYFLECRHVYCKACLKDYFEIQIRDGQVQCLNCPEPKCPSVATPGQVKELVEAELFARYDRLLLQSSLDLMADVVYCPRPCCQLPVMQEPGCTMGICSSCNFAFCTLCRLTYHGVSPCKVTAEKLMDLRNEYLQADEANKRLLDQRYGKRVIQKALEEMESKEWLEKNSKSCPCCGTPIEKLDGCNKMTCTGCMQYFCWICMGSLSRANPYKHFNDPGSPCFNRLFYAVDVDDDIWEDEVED
UniProt P51606: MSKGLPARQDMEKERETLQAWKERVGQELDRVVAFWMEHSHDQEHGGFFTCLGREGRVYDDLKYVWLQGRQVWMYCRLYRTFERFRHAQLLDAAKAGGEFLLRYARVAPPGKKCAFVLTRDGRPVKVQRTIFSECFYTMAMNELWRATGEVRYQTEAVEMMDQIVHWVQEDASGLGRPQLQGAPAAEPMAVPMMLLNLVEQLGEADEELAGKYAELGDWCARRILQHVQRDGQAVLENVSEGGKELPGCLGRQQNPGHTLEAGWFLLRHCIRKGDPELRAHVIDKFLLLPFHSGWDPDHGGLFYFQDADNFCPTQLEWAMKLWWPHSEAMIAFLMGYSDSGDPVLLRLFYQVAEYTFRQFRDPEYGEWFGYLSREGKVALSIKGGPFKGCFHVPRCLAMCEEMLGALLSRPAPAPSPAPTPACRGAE
UniProt Q13129: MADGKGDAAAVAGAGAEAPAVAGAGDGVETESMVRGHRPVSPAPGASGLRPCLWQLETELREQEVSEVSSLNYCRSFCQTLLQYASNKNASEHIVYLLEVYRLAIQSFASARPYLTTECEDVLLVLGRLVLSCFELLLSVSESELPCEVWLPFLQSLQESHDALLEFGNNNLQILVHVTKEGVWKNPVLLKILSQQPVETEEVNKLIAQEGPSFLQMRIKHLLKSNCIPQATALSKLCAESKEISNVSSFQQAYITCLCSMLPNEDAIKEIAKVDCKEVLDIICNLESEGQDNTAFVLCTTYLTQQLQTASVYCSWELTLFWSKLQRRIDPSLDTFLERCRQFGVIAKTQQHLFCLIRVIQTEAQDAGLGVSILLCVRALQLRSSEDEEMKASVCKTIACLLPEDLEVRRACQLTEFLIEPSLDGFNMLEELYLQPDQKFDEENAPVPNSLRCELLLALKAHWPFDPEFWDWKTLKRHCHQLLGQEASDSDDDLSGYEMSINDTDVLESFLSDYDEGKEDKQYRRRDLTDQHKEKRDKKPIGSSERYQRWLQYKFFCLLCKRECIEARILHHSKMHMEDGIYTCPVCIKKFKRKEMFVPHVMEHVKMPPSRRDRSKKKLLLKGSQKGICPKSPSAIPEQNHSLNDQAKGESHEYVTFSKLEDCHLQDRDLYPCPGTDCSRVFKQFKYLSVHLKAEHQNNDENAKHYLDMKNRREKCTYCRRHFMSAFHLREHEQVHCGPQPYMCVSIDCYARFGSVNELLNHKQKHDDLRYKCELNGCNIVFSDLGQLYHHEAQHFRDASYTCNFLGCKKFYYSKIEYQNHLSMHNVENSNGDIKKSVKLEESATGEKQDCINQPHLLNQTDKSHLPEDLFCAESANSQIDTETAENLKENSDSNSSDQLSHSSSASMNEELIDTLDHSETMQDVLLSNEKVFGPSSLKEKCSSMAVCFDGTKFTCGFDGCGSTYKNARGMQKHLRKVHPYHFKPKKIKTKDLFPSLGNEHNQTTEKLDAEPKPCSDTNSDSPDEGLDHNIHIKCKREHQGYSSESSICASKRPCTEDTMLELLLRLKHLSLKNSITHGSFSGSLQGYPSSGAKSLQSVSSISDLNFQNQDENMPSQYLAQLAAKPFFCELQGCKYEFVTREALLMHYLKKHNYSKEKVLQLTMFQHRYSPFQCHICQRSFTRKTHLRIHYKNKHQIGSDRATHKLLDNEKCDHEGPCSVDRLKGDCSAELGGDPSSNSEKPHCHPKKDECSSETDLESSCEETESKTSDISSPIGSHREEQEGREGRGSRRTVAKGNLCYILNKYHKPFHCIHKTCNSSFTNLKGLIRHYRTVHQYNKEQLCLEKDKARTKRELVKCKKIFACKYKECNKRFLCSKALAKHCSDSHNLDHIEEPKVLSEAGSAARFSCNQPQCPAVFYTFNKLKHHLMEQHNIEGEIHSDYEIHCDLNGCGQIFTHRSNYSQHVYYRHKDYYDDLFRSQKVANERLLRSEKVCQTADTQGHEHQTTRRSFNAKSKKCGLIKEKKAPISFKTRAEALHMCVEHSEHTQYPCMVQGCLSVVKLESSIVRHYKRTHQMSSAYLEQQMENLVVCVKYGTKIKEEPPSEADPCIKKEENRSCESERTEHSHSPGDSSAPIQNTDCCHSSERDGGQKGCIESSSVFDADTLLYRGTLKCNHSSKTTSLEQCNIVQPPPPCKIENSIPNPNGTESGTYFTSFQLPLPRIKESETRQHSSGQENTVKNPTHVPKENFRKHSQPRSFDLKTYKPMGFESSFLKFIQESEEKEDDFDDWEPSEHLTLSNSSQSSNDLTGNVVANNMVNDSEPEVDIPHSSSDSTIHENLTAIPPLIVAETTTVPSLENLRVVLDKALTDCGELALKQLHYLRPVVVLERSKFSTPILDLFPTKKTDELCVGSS
UniProt Q8WVD3: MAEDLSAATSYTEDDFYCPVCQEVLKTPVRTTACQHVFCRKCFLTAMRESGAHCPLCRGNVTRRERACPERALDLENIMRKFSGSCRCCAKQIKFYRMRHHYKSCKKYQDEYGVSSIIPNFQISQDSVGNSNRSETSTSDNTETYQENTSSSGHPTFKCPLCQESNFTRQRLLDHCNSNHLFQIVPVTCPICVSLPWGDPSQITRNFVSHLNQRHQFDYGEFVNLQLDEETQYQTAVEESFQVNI
UniProt Q9NWS8: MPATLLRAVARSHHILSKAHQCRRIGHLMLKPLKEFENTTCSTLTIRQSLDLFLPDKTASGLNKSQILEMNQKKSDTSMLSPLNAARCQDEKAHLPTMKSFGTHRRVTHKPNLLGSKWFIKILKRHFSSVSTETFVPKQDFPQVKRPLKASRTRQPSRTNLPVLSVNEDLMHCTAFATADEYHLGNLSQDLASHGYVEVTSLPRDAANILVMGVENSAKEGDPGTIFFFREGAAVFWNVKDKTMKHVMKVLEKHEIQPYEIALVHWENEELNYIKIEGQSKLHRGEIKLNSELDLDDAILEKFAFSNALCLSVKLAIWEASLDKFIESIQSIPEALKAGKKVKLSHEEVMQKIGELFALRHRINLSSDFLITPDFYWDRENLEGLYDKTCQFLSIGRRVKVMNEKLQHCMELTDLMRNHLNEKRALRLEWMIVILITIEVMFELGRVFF
UniProt P61586, whole entry: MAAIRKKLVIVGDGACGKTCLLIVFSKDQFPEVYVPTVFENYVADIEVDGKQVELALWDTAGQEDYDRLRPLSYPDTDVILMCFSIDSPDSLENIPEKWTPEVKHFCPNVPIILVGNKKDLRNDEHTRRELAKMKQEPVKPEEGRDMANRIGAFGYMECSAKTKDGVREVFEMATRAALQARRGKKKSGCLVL
UniProt P48378: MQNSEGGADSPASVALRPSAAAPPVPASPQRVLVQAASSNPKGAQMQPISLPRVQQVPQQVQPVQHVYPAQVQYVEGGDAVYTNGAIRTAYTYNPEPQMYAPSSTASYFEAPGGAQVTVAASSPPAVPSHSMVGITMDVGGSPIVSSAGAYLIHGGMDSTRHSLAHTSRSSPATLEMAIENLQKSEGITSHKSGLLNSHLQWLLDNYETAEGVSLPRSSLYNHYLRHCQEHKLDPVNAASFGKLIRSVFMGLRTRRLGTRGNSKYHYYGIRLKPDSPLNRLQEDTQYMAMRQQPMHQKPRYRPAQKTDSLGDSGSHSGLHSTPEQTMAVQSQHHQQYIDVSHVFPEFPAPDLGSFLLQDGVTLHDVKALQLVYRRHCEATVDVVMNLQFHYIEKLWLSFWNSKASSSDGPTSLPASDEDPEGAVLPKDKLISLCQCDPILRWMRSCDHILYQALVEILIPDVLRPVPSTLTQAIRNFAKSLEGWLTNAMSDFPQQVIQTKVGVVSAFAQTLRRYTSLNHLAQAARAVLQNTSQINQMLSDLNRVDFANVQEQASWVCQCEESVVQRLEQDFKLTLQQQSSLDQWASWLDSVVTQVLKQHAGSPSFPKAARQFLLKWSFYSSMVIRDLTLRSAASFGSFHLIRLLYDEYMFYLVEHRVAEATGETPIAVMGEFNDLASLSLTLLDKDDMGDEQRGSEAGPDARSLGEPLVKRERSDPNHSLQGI
UniProt P07949, whole entry, looked up: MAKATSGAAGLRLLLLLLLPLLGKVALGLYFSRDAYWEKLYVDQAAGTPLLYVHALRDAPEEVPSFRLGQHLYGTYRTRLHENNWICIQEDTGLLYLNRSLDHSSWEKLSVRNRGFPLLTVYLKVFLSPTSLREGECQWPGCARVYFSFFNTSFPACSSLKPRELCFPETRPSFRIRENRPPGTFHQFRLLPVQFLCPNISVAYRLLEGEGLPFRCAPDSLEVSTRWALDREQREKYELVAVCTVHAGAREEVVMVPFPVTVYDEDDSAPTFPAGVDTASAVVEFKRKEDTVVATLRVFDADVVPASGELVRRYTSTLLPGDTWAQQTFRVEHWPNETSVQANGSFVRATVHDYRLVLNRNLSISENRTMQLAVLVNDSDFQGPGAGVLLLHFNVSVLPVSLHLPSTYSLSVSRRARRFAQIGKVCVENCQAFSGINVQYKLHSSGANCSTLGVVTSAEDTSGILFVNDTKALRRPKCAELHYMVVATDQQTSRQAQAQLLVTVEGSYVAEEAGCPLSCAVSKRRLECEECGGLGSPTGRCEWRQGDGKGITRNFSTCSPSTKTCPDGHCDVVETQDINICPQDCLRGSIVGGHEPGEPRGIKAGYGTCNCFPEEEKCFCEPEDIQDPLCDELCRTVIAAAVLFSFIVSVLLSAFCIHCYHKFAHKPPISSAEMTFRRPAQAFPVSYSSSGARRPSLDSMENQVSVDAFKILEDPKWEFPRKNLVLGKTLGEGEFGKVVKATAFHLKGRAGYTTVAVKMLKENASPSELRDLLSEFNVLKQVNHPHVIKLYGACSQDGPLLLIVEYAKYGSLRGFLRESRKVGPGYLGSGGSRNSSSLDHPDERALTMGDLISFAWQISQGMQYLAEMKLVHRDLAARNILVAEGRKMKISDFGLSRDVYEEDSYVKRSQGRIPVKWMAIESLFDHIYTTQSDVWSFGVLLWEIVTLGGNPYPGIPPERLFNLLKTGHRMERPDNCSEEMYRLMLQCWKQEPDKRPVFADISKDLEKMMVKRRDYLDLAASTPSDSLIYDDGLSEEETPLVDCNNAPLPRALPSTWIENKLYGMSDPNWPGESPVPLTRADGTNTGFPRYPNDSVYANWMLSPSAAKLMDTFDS
UniProt P40938, whole entry, looked up: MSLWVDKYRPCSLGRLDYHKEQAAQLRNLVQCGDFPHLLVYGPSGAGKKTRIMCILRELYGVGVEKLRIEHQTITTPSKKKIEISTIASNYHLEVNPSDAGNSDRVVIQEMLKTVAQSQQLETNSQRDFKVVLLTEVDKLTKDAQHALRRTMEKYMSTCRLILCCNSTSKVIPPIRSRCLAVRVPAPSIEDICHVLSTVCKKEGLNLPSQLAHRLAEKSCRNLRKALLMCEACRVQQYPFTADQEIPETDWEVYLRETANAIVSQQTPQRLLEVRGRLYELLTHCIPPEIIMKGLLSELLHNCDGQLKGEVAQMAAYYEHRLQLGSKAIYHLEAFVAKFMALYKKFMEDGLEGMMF
UniProt O00584, whole entry, looked up: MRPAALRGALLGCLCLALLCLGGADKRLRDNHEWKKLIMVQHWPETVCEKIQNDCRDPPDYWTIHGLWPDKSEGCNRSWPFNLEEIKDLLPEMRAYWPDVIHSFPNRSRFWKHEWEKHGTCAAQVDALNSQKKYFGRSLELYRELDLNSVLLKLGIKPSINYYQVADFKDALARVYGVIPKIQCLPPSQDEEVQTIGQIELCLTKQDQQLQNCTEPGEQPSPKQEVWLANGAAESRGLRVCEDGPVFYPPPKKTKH
UniProt P35249, whole entry, looked up: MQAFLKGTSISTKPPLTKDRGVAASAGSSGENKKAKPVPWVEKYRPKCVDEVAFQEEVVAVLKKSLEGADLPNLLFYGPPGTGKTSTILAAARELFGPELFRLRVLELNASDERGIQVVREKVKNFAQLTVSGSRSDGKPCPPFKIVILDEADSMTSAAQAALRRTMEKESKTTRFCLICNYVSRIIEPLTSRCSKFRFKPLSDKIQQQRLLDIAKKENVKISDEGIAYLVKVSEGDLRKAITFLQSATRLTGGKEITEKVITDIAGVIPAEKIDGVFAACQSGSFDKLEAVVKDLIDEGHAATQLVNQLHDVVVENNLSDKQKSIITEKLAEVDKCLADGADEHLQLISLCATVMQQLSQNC

Compound: Cc1cc(ccc1-c1ccccc1)C(=O)N1CCCN(CC1)C(=O)CCl [compound 10]
Assay: probe-labelled cysteine peptide fold change vs DMSO (competition) (log2 fold change); higher = less target engagement (more negative = stronger competition)
Conditions: THP-1, incubation time: 4 h
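Also: competitive profiling in live THP-1 cells: cysteine peptides tagged with an iodoacetamide desthiobiotin (IA-DTB) probe, intensity after compound treatment relative to DMSO-treated cells.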

Target	probe-labelled cysteine peptide fold change (10 µM)	probe-labelled cysteine peptide fold change (50 µM)
RECQL4_O94761_814_DGQPAHCHLFLQPQGEDLR (UniProt O94761)	-0.0251	-0.0847
RNF14_Q9UBS8_350_LTYHGVSPCK (UniProt Q9UBS8)	-0.0421	-0.206
RHOC_P08134_159_ISAFGYLECSAK (UniProt P08134)	-0.0252	0.0731
RENBP_P51606_114_CAFVLTR (UniProt P51606)	0.165	0.000278
RFC2_P35250_171_FALACNASDK (UniProt P35250)	0.0304	0.151
RNF114_Q9Y508_110_SHVATCSK (UniProt Q9Y508)	0.137	0.0845
RFC5_P40937_73_TSTILACAK (UniProt P40937)	-0.049	0.0665
RMDN3_Q96TC7_128_CHMEENQR (UniProt Q96TC7)	-0.178	-0.221
RFXANK_O14593_205_CVEALLAR (UniProt O14593)	0.0175	-0.265
RLF_Q13129_1212+1218_CDHEGPCSVDR (UniProt Q13129)	-0.00264	0.122
RIOX1_Q9H6W3_584_CLEIYPQQADAMELLLGSYPEFVR (UniProt Q9H6W3)	0.184	0.489
RNASEL_Q05823_576_DCLSDLLGHPFFWTWESR (UniProt Q05823)	0.337	0.0397
RFTN1_Q14699_527_GPVQEDKGEQLSPGGLLCGVGVEGEAVQNGPASHSR (UniProt Q14699)	-0.144	-0.0344
RELA_Q04206_105_DGFYEAELCPDR (UniProt Q04206)	-0.314	-0.323
RNF138_Q8WVD3_34_TTACQHVFCR (UniProt Q8WVD3)	0.05	-0.131
RMND1_Q9NWS8_409_LQHCMELTDLMR (UniProt Q9NWS8)	0.18	0.379
RHOA_P61586_159_IGAFGYMECSAK (UniProt P61586)	-0.00736	-0.162
RIOK3_O14730_287_VIPTECAIK (UniProt O14730)	-0.175	-0.205
RFX2_P48378_436_LISLCQCDPILR (UniProt P48378)	-0.124	-0.0951
RET_P07949_585_TCPDGHCDVVETQDINICPQDCLR (UniProt P07949)	-0.18	0.0812

A section of the results above, for reference:
Target	probe-labelled cysteine peptide fold change (10 µM)	probe-labelled cysteine peptide fold change (50 µM)
RFTN1_Q14699_527_GPVQEDKGEQLSPGGLLCGVGVEGEAVQNGPASHSR (UniProt Q14699)	-0.144	-0.0344
RELA_Q04206_105_DGFYEAELCPDR (UniProt Q04206)	-0.314	-0.323
RNF138_Q8WVD3_34_TTACQHVFCR (UniProt Q8WVD3)	0.05	-0.131
RMND1_Q9NWS8_409_LQHCMELTDLMR (UniProt Q9NWS8)	0.18	0.379
RHOA_P61586_159_IGAFGYMECSAK (UniProt P61586)	-0.00736	-0.162
RIOK3_O14730_287_VIPTECAIK (UniProt O14730)	-0.175	-0.205
RFX2_P48378_436_LISLCQCDPILR (UniProt P48378)	-0.124	-0.0951
RET_P07949_585_TCPDGHCDVVETQDINICPQDCLR (UniProt P07949)	-0.18	0.0812

(next part)

Target	probe-labelled cysteine peptide fold change (10 µM)	probe-labelled cysteine peptide fold change (50 µM)
RNF126_Q9BV68_32_CESGFIEELPEETR (UniProt Q9BV68)	-0.123	-0.378
RFC1_P35251_607_TIIGQQGDQSCANK (UniProt P35251)	-0.288	-0.227
RMDN1_Q96DB5_170_WYAICLSDVGDYEGIK (UniProt Q96DB5)	0.371	0.484
RFWD3_Q6PCD5_379_QAELESAQCR (UniProt Q6PCD5)	-0.0752	-0.305
RENBP_P51606_76_QVWMYCR (UniProt P51606)	0.076	0.168
RGS14_O43566_496_QTCDIEGLVELLNR (UniProt O43566)	-0.339	-0.994
REPIN1_Q9BWE0_167_CHPPAPEAR (UniProt Q9BWE0)	0.0487	0.161
RETSAT_Q6NUM9_547_LHPCVMASLR (UniProt Q6NUM9)	-0.356	-0.379
RFC3_P40938_193_VPAPSIEDICHVLSTVCK (UniProt P40938)	0.191	0.235
RNASET2_O00584_48_LIMVQHWPETVCEK (UniProt O00584)	-0.201	0.00823
RNF14_Q9UBS8_265_DGQVQCLNCPEPK (UniProt Q9UBS8)	0.137	-0.219
RFC3_P40938_303_GLLSELLHNCDGQLK (UniProt P40938)	0.188	0.233
RNASET2_O00584_121_HGTCAAQVDALNSQKK (UniProt O00584)	0.149	-0.516
RLF_Q13129_749_EHEQVHCGPQPYMCVSIDCYAR (UniProt Q13129)	0.00348	-0.111
RIN1_Q13671_623_LPATHCFQHLLR (UniProt Q13671)	-0.151	-0.687
RLF_Q13129_1317_TCNSSFTNLK (UniProt Q13129)	0.0665	0.133
RINL_Q6ZS11_350_KDEDPGPALETAVCQAVLAPLKPALWTR (UniProt Q6ZS11)	-0.282	-0.375
RFC4_P35249_48_CVDEVAFQEEVVAVLK (UniProt P35249)	0.000266	0.579
RFTN1_Q14699_211_GDHASLENEKPGTGDVCSAPAGR (UniProt Q14699)	0.161	-0.495
RFC4_P35249_48_CVDEVAFQEEVVAVLKK (UniProt P35249)	-0.116	-0.637
